# Measurements: patent US20240327418A1, “MULTI-TARGET INHIBITOR TARGETING HDAC AND NAD SYNTHESIS AND USE OF MULTI-TARGET INHIBITOR” (OCEAN UNIVERSITY OF CHINA, priority 2021, published 2024)
# Amino acid sequences for entries named in this document (tags omitted).
# UniProt P43490, whole entry, species assumed: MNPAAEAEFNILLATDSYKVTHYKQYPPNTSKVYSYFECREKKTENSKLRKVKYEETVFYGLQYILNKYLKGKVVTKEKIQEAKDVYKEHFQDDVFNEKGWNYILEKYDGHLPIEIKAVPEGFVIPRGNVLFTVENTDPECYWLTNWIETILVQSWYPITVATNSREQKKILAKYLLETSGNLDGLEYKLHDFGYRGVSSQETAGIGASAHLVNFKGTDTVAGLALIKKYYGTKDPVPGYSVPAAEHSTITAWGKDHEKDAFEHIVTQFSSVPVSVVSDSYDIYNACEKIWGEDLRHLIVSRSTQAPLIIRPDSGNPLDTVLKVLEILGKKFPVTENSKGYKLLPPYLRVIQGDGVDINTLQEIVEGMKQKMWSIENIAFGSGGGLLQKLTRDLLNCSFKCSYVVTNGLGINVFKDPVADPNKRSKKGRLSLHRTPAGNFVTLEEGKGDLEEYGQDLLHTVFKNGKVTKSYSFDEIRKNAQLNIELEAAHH
# For at least one compound, name, drawing or mass did not settle the structure.
# Biological target: NAMPT (Homo sapiens (Human), UniProt P43490)
# Assay: Inhibitory activity on NAMPT
# Type: biochemical
smiles,measurement,value
"CCCNNC(=O)CCCCCCNC(=O)c1cc2cnccc2[nH]1 [LEE7, N-(7-oxo-7-(2-propylhydrazino)heptyl)-3H-pyrrolo[3,2-c]pyridin-2-carboxamide]",inhibitory activity against NAMPT (in words),micromolar level
